Measurements taken from publication PMC9471085.
These are yes or no findings as the source states them, for the method shown. In cells and extracts the contact can be indirect. Some binding calls cover weakened binding; strength is not graded here.

By UniProt entry, the sequences of proteins in these tests, tags left out.
UniProt Q99836: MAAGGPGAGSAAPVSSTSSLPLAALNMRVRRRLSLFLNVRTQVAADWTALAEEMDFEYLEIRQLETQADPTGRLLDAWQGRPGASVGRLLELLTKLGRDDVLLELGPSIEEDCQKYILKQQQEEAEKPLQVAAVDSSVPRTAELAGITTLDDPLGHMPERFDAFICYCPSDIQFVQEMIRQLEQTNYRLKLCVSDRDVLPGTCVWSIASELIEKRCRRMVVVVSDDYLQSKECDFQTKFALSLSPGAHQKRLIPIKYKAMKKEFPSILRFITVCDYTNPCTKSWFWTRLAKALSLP
UniProt Q13489: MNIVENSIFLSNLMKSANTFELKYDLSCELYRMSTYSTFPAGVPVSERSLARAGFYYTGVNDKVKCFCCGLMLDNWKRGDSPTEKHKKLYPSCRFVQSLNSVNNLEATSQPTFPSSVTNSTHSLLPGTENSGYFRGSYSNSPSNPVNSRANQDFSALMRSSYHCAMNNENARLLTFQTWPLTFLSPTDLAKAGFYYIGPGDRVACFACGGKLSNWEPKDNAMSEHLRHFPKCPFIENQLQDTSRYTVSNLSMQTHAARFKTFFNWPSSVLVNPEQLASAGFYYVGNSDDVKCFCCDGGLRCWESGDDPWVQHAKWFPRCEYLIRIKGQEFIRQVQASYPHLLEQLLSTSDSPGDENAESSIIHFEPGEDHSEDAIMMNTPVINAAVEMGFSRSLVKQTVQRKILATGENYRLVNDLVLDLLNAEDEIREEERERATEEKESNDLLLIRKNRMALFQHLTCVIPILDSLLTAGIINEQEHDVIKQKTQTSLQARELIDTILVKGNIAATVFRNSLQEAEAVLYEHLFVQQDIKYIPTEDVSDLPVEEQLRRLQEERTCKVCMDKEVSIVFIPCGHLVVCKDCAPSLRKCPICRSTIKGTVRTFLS

Legend:
[1] = biological target: MyD88 (human (endogenous in MDA-MB-231)) (UniProt Q99836); assay: co-IP; 300 μg of MDA-MB-231 lysate protein (M-PER lysis buffer with protease inhibitor; samples as in Figure 5B, LPS 100 ng/ml, 8 h) incubated overnight with 1 μg MyD88 polyclonal antibody, Protein A/G affinity gel at 4°C, three washes; blot with pan cIAP antibody
[2] = biological target: MyD88 (human (endogenous in MDA-MB-231)) (UniProt Q99836); assay: co-IP; as a1, but immunoprecipitated with anti-MyD88 antibody with 10 μM of MyD88 inhibitor 4210

binding [1]: binds
Substance: cIAP2 (from UniProt Q13489 1-604)
binding [2]: no binding (condition: with 10 μM of MyD88 inhibitor 4210)
